Values of other authors, collected in patent US20220057383A1, “USE OF BIOMARKERS TO EVALUATE THE EFFICACY OF A COMPOSITION IN REDUCING THE EFFECTS OF CANCER THERAPEUTICS ON SKIN” (Johnson & Johnson Consumer Inc., priority 2019, published 2022).
At least one compound was matched to its structure with a doubt left.

Details: patients (Arrieta et al. 2015); cited from earlier work

## CN(C)[C@@H]1C(O)=C(C(N)=O)C(=O)[C@@]2(O)C(O)=C3C(=O)c4c(O)cccc4[C@@](C)(O)[C@H]3C[C@@H]12 [tetracycline]
  effect on CADR symptoms following afatinib exposure: improvement of the CADR symptoms
